According to PubChem BioAssay AID485314 (National Center for Advancing Translational Sciences (NCATS), 2010):
Hit rate of the full screen: of about 340,000 compounds, about 4,500 (1.3%) were called active. The shares of active, inactive and inconclusive entries below differ from those in the screen. Calls come from the whole dose curve; as a rule, active = well fitted inhibition curve with a large enough effect; inconclusive = small, poorly fitted or top-dose-only effect, or another doubt; inactive = no such curve, though single readings can be large or run the other way. Potencies beside an inconclusive call are fits to weak or partial responses and may not hold up.

Target: DNA polymerase beta (Homo sapiens) (UniProt P06746)
Assay: qHTS Assay for Inhibitors of DNA Polymerase Beta
Details: Pol beta primer extension/strand displacement, fluorescence kinetic; series mostly up to 114 µM
How it was run: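 Homogeneous kinetic assay of primer extension and strand displacement by 10 nM Pol beta, preincubated 15 min at room temperature with compound before 50 nM substrate (final) was added. Read at 0 and 10 min; four-parameter Hill fit.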
Potency is the fitted concentration of half-maximal effect.

| Structure (SMILES) | Potency |
| --- | --- |
| CCc1cc2c(cc3c(=O)n(CCCC(=O)NCc4cccc(Cl)c4)ncn32)s1 | inconclusive: 3.16 µM [inhibitor, full curve, poor fit] |
| CCOCCCn1c(=S)[nH]c2cc(C(=O)N3CCN(c4ccccc4)CC3)ccc2c1=O | inactive |
| Fc1ccc(-c2nnn(Cc3ccccc3Cl)n2)cc1 | inconclusive: 25.1 µM [inhibitor, partial curve, poor fit] |
| N#CCCN(Cc1ccccc1)C(=O)c1cccs1 | active: 0.158 µM |
| COc1cccc(CNc2ccc3[nH]c(=O)[nH]c3c2)c1OCc1ccccc1 | inactive |
| O=C(COC(=O)[C@H](Cc1ccccc1)NC(=O)c1cccs1)Nc1cc(F)ccc1F | active: 79.4 µM |
| COc1ccccc1/C=C/C=N/NC(=O)c1cc(-c2ccco2)[nH]n1 | active: 25.1 µM |
| Cc1cccc2c1-c1sc(C(=O)N(C)c3cccc(Cl)c3)cc1CO2 | inactive |
| O=C(c1ccc2c(c1)N(Cc1cccc(F)c1)C(=O)c1ccccc1S2)N1CCCC1 | active: 39.8 µM |
| CCOc1ccccc1C(=O)NC1(C(F)(F)F)C(=O)Nc2c1c(=O)[nH]c(=O)n2-c1ccc(F)cc1 (stereo not given) | inactive |
| Cn1c(SCc2ccc(C#N)cc2Cl)nc2ccccc21 | inconclusive: 89.1 µM [inhibitor, single point] |
| Cc1ccc(Cl)cc1Nc1nn2c(=O)c3ccc(C(=O)NCc4ccc(F)cc4)cc3nc2s1 | inconclusive: 0.141 µM [inhibitor, full curve, poor fit] |
| C=CCc1ccc(OCc2ccc(C(=O)OC)o2)c(OC)c1 | inconclusive: 15.8 µM [inhibitor, partial curve, poor fit] |
| CCCOc1ccc(-c2nc(SCC(=O)c3ccc(Cl)cc3)n[nH]2)cc1 | inconclusive: 20 µM [inhibitor, full curve] |
| Cc1cc(-c2cccnc2)c(C#N)c(SCc2cccc(F)c2)n1 | inconclusive: 89.1 µM [inhibitor, single point] |
| CCOC(=O)c1c(Nc2ccc(OC)cc2)nnc(-c2ccccc2)c1-c1ccccc1 | inactive |
| O=C(O)Cn1c(O)c(C=Nc2ccccc2)sc1=S | inconclusive: 89.1 µM [inhibitor, single point] |
| NC(CCCCCP(=O)(c1ccccc1)c1ccccc1)C(=O)O (stereo not given) | active: 17.8 µM |
| Cn1nnc(NC(=O)CSc2nnnn2-c2ccc(F)cc2)n1 | inconclusive: 89.1 µM [inhibitor, single point] |
| Brc1ccsc1-c1csc(-c2ccncc2)n1 | inconclusive: 50.1 µM [inhibitor, partial curve] |
| Cc1cccc(CN(CC(=O)N/N=C/c2ccco2)S(=O)(=O)c2ccc(Cl)cc2)c1 | inconclusive: 25.1 µM [inhibitor, full curve] |
| O=C(N/N=C/C=C/c1ccco1)c1cccs1 | active: 25.1 µM |
| CN1CCN(Cc2cc(COCc3ccccc3)c3cccnc3c2O)CC1 | inactive |
| CC1=CC(C)(C)NC(=S)N1c1ccc2ccccc2c1 | inconclusive: 89.1 µM [inhibitor, single point] |

| Structure (SMILES) | Potency |
| --- | --- |
| COc1ccc(Cl)cc1C(=O)O/N=C(\N)c1ccccn1 | inconclusive: 39.8 µM [inhibitor, single point] |
| CCN(CC)CCNC(=O)c1c2c(nc3ccccc13)C(=O)N(C1CCCCC1)C2 | inactive |
| COc1cccc(NC(=O)Cn2cc(C(=O)c3ccc(C)cc3)c(=O)c3cc(OC)ccc32)c1 | active: 20 µM |
| O=C(Nc1ncc(Cc2ccccc2)s1)C1CCCO1 (stereo not given) | inactive |
| COc1ccc(-c2nc3cc(NC(=O)CSc4ccc(C)cc4)ccc3o2)cc1 | inconclusive: 44.7 µM [inhibitor, partial curve] |
| COC(=O)c1ccccc1NC(=S)NC(=O)C1CCCCC1 | inconclusive: 4.47 µM [inhibitor, full curve, poor fit] |
| COc1ccc(-c2cccc(C(=O)Nc3ccc(OC)c(OC)c3)c2)cc1 | inconclusive: 0.251 µM [inhibitor, single point] |
| C=CCOC(=O)C1=C[C@@H](c2ccc3c(c2)OCO3)C[C@@H](OCc2ccc(CO)cc2)O1 | inconclusive: 39.8 µM [inhibitor, partial curve] |
| O=C(COC(=O)/C=C/c1ccco1)NCc1ccccc1 | inconclusive: 79.4 µM [inhibitor, single point] |
| CCOc1ccc(N=Cc2c(O)n(-c3cccc(C)n3)c(=O)c3ccccc23)cc1 | inconclusive: 89.1 µM [inhibitor, single point] |
| N#Cc1c(-c2ccc(F)cc2)cc(-c2cccs2)nc1SCC(=O)O | inconclusive: 44.7 µM [inhibitor, partial curve, poor fit] |
| Cc1cc(C)n(C(C)CC(=O)Nc2ccc(C)c(N(C)C)c2)n1 (stereo not given) | inactive |
| CSc1ccc(-c2nnc(NC(=O)c3ccc4c(c3)OCCO4)o2)cc1 | inconclusive: 100 µM [inhibitor, single point] |
| Cc1cc2ccccc2n1CCNC(=O)c1ccc(Br)cc1 | inconclusive: 31.6 µM [inhibitor, full curve] |
| CCc1ccc(NC(=O)CN2C(=O)C3(SCC(=O)N3c3ccc(F)c(F)c3)c3ccccc32)cc1 (stereo not given) | inactive |
| COc1ccc(CNC(=O)CCc2c(C)c3cc4c(C)c(C)oc4cc3oc2=O)cc1OC | active: 1.58 µM |
| Cc1ccc2nc(N3CCOCC3)c3nncn3c2c1 | inconclusive: 89.1 µM [inhibitor, single point] |
| COc1ccc(/C=N/OC(=O)c2ccc(Cl)cc2)c(Cl)c1OC | inconclusive: 39.8 µM [inhibitor, partial curve, poor fit] |
| c1ccc(Cc2nnc3n2N=C(c2ccccc2)CS3)cc1 | inconclusive: 0.199 µM [inhibitor, full curve, poor fit] |
| CCOC(=O)c1nc(Nc2ccccc2CC)c2ccccc2n1 | inactive |
| CC1S/C(=N/N=C/c2ccco2)N(Cc2ccccc2)C1=O (stereo not given) | inconclusive: 31.6 µM [inhibitor, full curve] |
| O=C(CCn1ccc2cc(S(=O)(=O)N3CCCC3)ccc21)NCc1ccccc1Br | inactive |
| Cc1c(NC(=O)c2ccc3c(c2)C(=O)N(Cc2ccco2)C3=O)cccc1C(=O)O | inconclusive: 15.8 µM [inhibitor, single point] |
| Cc1cc(C)c2nc3nc(C)c(C)cc3c(N)c2c1 | active: 15.8 µM |

Some of the entries so far, tab-delimited:
Structure (SMILES)	Potency
O=C(CCn1ccc2cc(S(=O)(=O)N3CCCC3)ccc21)NCc1ccccc1Br	inactive
Cc1c(NC(=O)c2ccc3c(c2)C(=O)N(Cc2ccco2)C3=O)cccc1C(=O)O	inconclusive: 15.8 µM [inhibitor, single point]
Cc1cc(C)c2nc3nc(C)c(C)cc3c(N)c2c1	active: 15.8 µM

Gathered by group: the compounds so far containing two or more sulfur atoms

| Structure (SMILES) | Potency |
| --- | --- |
| O=C(O)Cn1c(O)c(C=Nc2ccccc2)sc1=S | inconclusive: 89.1 µM [inhibitor, single point] |
| Brc1ccsc1-c1csc(-c2ccncc2)n1 | inconclusive: 50.1 µM [inhibitor, partial curve] |
| N#Cc1c(-c2ccc(F)cc2)cc(-c2cccs2)nc1SCC(=O)O | inconclusive: 44.7 µM [inhibitor, partial curve, poor fit] |

(further entries)

| Structure (SMILES) | Potency |
| --- | --- |
| C#CCn1c(=NC(=O)c2ccc(Br)s2)sc2cccc(OC)c21 | inconclusive: 8.91 µM [inhibitor, full curve, poor fit] |
| Cc1ccc(NC(=O)C2CCN(S(=O)(=O)c3ccc4[nH]c(=O)ccc4c3)CC2)c(C)c1 | inconclusive: 89.1 µM [inhibitor, single point] |
| CC(=O)c1ccc(S(=O)(=O)Nc2ccc(-c3ccc4nnc(C)n4n3)cc2)cc1 | active: 28.2 µM |
| COc1ccc2[nH]c(C(=O)O)c(CCNC(C)=O)c2c1 | inconclusive: 89.1 µM [inhibitor, single point] |
| CCOC(=O)c1sc(NC(=O)c2ccoc2C)c(C(N)=O)c1C | inconclusive: 39.8 µM [inhibitor, full curve, poor fit] |
| Oc1cccc(C=Nc2cccc3ccccc23)c1O | active: 8.91 µM |
| COc1ccc(-c2cc(C(F)(F)F)nc(SCC(=O)NCC(C)C)n2)cc1OC | inactive |
| Cc1ccc(Nc2c(-c3ccccn3)nc3cc(C)ccn23)cc1 | inconclusive: 70.8 µM [inhibitor, single point] |
| O=C(OCC(=O)c1c[nH]c2ccccc12)c1cc(Br)ccc1O | inconclusive: 89.1 µM [inhibitor, single point] |
| CCOc1cc(C(=O)NCC(c2ccc(N(C)C)cc2)N2CCOCC2)cc(OCC)c1OCC (stereo not given) | inactive |
| O=C(CSc1nc(-c2ccc(F)cc2)[nH]c1-c1ccc(F)cc1)Nc1ccc2c(c1)OCO2 | inconclusive: 15.8 µM [inhibitor, partial curve] |
| Cc1cc(-c2[nH]nc3c2C(c2ccsc2)C(C#N)=C(N)O3)c(C)s1 (stereo not given) | inconclusive: 35.5 µM [inhibitor, full curve, poor fit] |
| O=C(Nc1ccc2nc(-c3ccc(Br)o3)[nH]c2c1)c1cccs1 | inconclusive: 56.2 µM [inhibitor, partial curve] |
| Cc1cc(-c2ccc(C(C)C)c(S(=O)(=O)N3CCN(c4ccccn4)CC3)c2)on1 | inactive |
| Cc1nn(-c2ccccc2)c(C)c1-c1cc(C(=O)N/N=C/c2ccc(O)cc2)[nH]n1 | active: 10 µM |
| CC(C)c1ccc(S(=O)(=O)N2CCC(N3CCN(Cc4ccccc4)C(=O)C3=O)CC2)cc1 | inconclusive: 89.1 µM [inhibitor, single point] |
| C/C(=N\NC(=O)c1ccc(Cl)c(Cl)c1)c1ccc(Br)s1 | inconclusive: 89.1 µM [inhibitor, single point] |
| COc1ccccc1-c1noc(-c2ccc(NCC3CCCO3)c([N+](=O)[O-])c2)n1 (stereo not given) | inactive |
| CCC(C)NC(=O)NC(=O)N(C1CCCCC1)S(C)(=O)=O (stereo not given) | inconclusive: 3.16 µM [inhibitor, single point] |
| COc1cc(/C=C2/C(=O)NN(c3ccc(Cl)cc3)C2=O)ccc1OC(=O)c1ccco1 | inconclusive: 12.6 µM [inhibitor, partial curve, poor fit] |
| CC1CC(C)CN(c2ccc(NS(=O)(=O)c3ccccc3)cc2C(=O)O)C1 (stereo not given) | inconclusive: 0.158 µM [inhibitor, full curve, poor fit] |
| CC(C)(C)c1csc(N/N=C/c2ccc(O)cc2)n1 | inconclusive: 100 µM [inhibitor, single point] |
